# Results reported in the supplement of paper PMC11438910.
# This is one part of the list. Most of these values are background signal.
# B1: 4-80.1 (protein)
# chain 1: QVQLQESGPGLVKPSETLSLTCAVSGIPISTYWWSWIRQTPEKGLEWIGEIDGNGGGTNYNPSLQSRVTFSKDASKNQFSLRLNSVTAADTAVFYCARLWGNAYWGQGVLVTVSS
# chain 2: DVVMTQSPLSLPINPGQPASISCRSSQSLVYSDGKTYLTWYQQKPGQPPRRLIYQVSKRDSGVPDRFSGSGAGTDFTLKISRVESEDVGIYYCLQGTHLPYTFGQGTKVEIK
# Legend:
# Experiment in all cases: fluorescence intensity of antibody binding to polysaccharide-coupled beads; higher = stronger binding
# [1] = biological target: pneumococcal polysaccharide Pn23F
# [2] = biological target: pneumococcal polysaccharide Pn24A
# [3] = biological target: pneumococcal polysaccharide Pn24B
# [4] = biological target: pneumococcal polysaccharide Pn24F
# [5] = biological target: pneumococcal polysaccharide Pn25A
# [6] = biological target: pneumococcal polysaccharide Pn25F
# [7] = biological target: pneumococcal polysaccharide Pn27
# [8] = biological target: pneumococcal polysaccharide Pn28A
# [9] = biological target: pneumococcal polysaccharide Pn28F
# [10] = biological target: pneumococcal polysaccharide Pn29
# [11] = biological target: pneumococcal polysaccharide Pn3
# [12] = biological target: pneumococcal polysaccharide Pn31
# [13] = biological target: pneumococcal polysaccharide Pn32A
# [14] = biological target: pneumococcal polysaccharide Pn32F
# [15] = biological target: pneumococcal polysaccharide Pn33A
# [16] = biological target: pneumococcal polysaccharide Pn33B
# [17] = biological target: pneumococcal polysaccharide Pn33C
# [18] = biological target: pneumococcal polysaccharide Pn33D
# [19] = biological target: pneumococcal polysaccharide Pn33F
# [20] = biological target: pneumococcal polysaccharide Pn34
# [21] = biological target: pneumococcal polysaccharide Pn35A
# [22] = biological target: pneumococcal polysaccharide Pn35B
# [23] = biological target: pneumococcal polysaccharide Pn35C
# [24] = antibody concentration 2.8593 ng/mL
# [25] = antibody concentration 15.2894 ng/mL
# [26] = antibody concentration 81.7561 ng/mL
# [27] = antibody concentration 437.17 ng/mL
# [28] = antibody concentration 2337.65 ng/mL
# [29] = antibody concentration 12500 ng/mL
# [30] = antibody concentration 0.1 ng/mL
# [31] = antibody concentration 0.534724 ng/mL
binder,measurement,setting,value
B1,fluorescence intensity,[1]; [24],17.8 MFI
same,fluorescence intensity,[1]; [25],19.2 MFI
same,fluorescence intensity,[1]; [26],17 MFI
same,fluorescence intensity,[1]; [27],19.2 MFI
same,fluorescence intensity,[1]; [28],25.8 MFI
same,fluorescence intensity,[1]; [29],42.5 MFI
same,fluorescence intensity,[2]; [30],16 MFI
same,fluorescence intensity,[2]; [31],15.8 MFI
same,fluorescence intensity,[2]; [24],15.8 MFI
same,fluorescence intensity,[2]; [25],25 MFI
same,fluorescence intensity,[2]; [26],103 MFI
same,fluorescence intensity,[2]; [27],791 MFI
same,fluorescence intensity,[2]; [28],1660 MFI
same,fluorescence intensity,[2]; [29],2140 MFI
same,fluorescence intensity,[3]; [30],19 MFI
same,fluorescence intensity,[3]; [31],19 MFI
same,fluorescence intensity,[3]; [24],16.5 MFI
same,fluorescence intensity,[3]; [25],18.5 MFI
same,fluorescence intensity,[3]; [26],22 MFI
same,fluorescence intensity,[3]; [27],45 MFI
same,fluorescence intensity,[3]; [28],85.2 MFI
same,fluorescence intensity,[3]; [29],126 MFI
same,fluorescence intensity,[4]; [30],17 MFI
same,fluorescence intensity,[4]; [31],18 MFI
same,fluorescence intensity,[4]; [24],19.8 MFI
same,fluorescence intensity,[4]; [25],21.2 MFI
same,fluorescence intensity,[4]; [26],28 MFI
same,fluorescence intensity,[4]; [27],123 MFI
same,fluorescence intensity,[4]; [28],296 MFI
same,fluorescence intensity,[4]; [29],295 MFI
same,fluorescence intensity,[5]; [30],23.5 MFI
same,fluorescence intensity,[5]; [31],25 MFI
same,fluorescence intensity,[5]; [24],23.8 MFI
same,fluorescence intensity,[5]; [25],25 MFI
same,fluorescence intensity,[5]; [26],30 MFI
same,fluorescence intensity,[5]; [27],117 MFI
same,fluorescence intensity,[5]; [28],464 MFI
same,fluorescence intensity,[5]; [29],889 MFI
same,fluorescence intensity,[6]; [30],29.8 MFI
same,fluorescence intensity,[6]; [31],33 MFI
same,fluorescence intensity,[6]; [24],29.5 MFI
same,fluorescence intensity,[6]; [25],30 MFI
same,fluorescence intensity,[6]; [26],34.5 MFI
same,fluorescence intensity,[6]; [27],66.5 MFI
same,fluorescence intensity,[6]; [28],153 MFI
same,fluorescence intensity,[6]; [29],274 MFI
same,fluorescence intensity,[7]; [30],18.5 MFI
same,fluorescence intensity,[7]; [31],16.8 MFI
same,fluorescence intensity,[7]; [24],18.5 MFI
same,fluorescence intensity,[7]; [25],22.2 MFI
same,fluorescence intensity,[7]; [26],61.8 MFI
same,fluorescence intensity,[7]; [27],269 MFI
same,fluorescence intensity,[7]; [28],634 MFI
same,fluorescence intensity,[7]; [29],984 MFI
same,fluorescence intensity,[8]; [30],26.5 MFI
same,fluorescence intensity,[8]; [31],28 MFI
same,fluorescence intensity,[8]; [24],26.5 MFI
same,fluorescence intensity,[8]; [25],28 MFI
same,fluorescence intensity,[8]; [26],28.5 MFI
same,fluorescence intensity,[8]; [27],51 MFI
same,fluorescence intensity,[8]; [28],178 MFI
same,fluorescence intensity,[8]; [29],451 MFI
same,fluorescence intensity,[9]; [30],29.8 MFI
same,fluorescence intensity,[9]; [31],29 MFI
same,fluorescence intensity,[9]; [24],28.5 MFI
same,fluorescence intensity,[9]; [25],31.5 MFI
same,fluorescence intensity,[9]; [26],47.5 MFI
same,fluorescence intensity,[9]; [27],236 MFI
same,fluorescence intensity,[9]; [28],651 MFI
same,fluorescence intensity,[9]; [29],1000 MFI
same,fluorescence intensity,[10]; [30],17 MFI
same,fluorescence intensity,[10]; [31],16 MFI
same,fluorescence intensity,[10]; [24],17.8 MFI
same,fluorescence intensity,[10]; [25],19.8 MFI
same,fluorescence intensity,[10]; [26],41.2 MFI
same,fluorescence intensity,[10]; [27],233 MFI
same,fluorescence intensity,[10]; [28],573 MFI
same,fluorescence intensity,[10]; [29],870 MFI
same,fluorescence intensity,[11]; [30],13.8 MFI
same,fluorescence intensity,[11]; [31],12.8 MFI
same,fluorescence intensity,[11]; [24],13.5 MFI
same,fluorescence intensity,[11]; [25],13 MFI
same,fluorescence intensity,[11]; [26],14 MFI
same,fluorescence intensity,[11]; [27],15 MFI
same,fluorescence intensity,[11]; [28],18.5 MFI
same,fluorescence intensity,[11]; [29],32.5 MFI
same,fluorescence intensity,[12]; [30],14 MFI
same,fluorescence intensity,[12]; [31],14 MFI
same,fluorescence intensity,[12]; [24],16.5 MFI
same,fluorescence intensity,[12]; [25],34.5 MFI
same,fluorescence intensity,[12]; [26],177 MFI
same,fluorescence intensity,[12]; [27],664 MFI
same,fluorescence intensity,[12]; [28],1060 MFI
same,fluorescence intensity,[12]; [29],1230 MFI
same,fluorescence intensity,[13]; [30],17.8 MFI
same,fluorescence intensity,[13]; [31],18.2 MFI
same,fluorescence intensity,[13]; [24],17.5 MFI
same,fluorescence intensity,[13]; [25],18.5 MFI
same,fluorescence intensity,[13]; [26],17.8 MFI
same,fluorescence intensity,[13]; [27],20 MFI
same,fluorescence intensity,[13]; [28],30 MFI
same,fluorescence intensity,[13]; [29],57 MFI
same,fluorescence intensity,[14]; [30],30 MFI
same,fluorescence intensity,[14]; [31],28 MFI
same,fluorescence intensity,[14]; [24],29 MFI
same,fluorescence intensity,[14]; [25],30 MFI
same,fluorescence intensity,[14]; [26],31.5 MFI
same,fluorescence intensity,[14]; [27],36 MFI
same,fluorescence intensity,[14]; [28],53.5 MFI
same,fluorescence intensity,[14]; [29],75 MFI
same,fluorescence intensity,[15]; [30],18.5 MFI
same,fluorescence intensity,[15]; [31],17.5 MFI
same,fluorescence intensity,[15]; [24],17.8 MFI
same,fluorescence intensity,[15]; [25],20 MFI
same,fluorescence intensity,[15]; [26],33 MFI
same,fluorescence intensity,[15]; [27],106 MFI
same,fluorescence intensity,[15]; [28],233 MFI
same,fluorescence intensity,[15]; [29],444 MFI
same,fluorescence intensity,[16]; [30],18 MFI
same,fluorescence intensity,[16]; [31],18.5 MFI
same,fluorescence intensity,[16]; [24],18.5 MFI
same,fluorescence intensity,[16]; [25],18 MFI
same,fluorescence intensity,[16]; [26],18.2 MFI
same,fluorescence intensity,[16]; [27],20 MFI
same,fluorescence intensity,[16]; [28],25.5 MFI
same,fluorescence intensity,[16]; [29],36.5 MFI
same,fluorescence intensity,[17]; [30],20.5 MFI
same,fluorescence intensity,[17]; [31],19.5 MFI
same,fluorescence intensity,[17]; [24],20 MFI
same,fluorescence intensity,[17]; [25],39 MFI
same,fluorescence intensity,[17]; [26],178 MFI
same,fluorescence intensity,[17]; [27],1170 MFI
same,fluorescence intensity,[17]; [28],2180 MFI
same,fluorescence intensity,[17]; [29],2610 MFI
same,fluorescence intensity,[18]; [30],16.5 MFI
same,fluorescence intensity,[18]; [31],16.5 MFI
same,fluorescence intensity,[18]; [24],16 MFI
same,fluorescence intensity,[18]; [25],16 MFI
same,fluorescence intensity,[18]; [26],21.2 MFI
same,fluorescence intensity,[18]; [27],106 MFI
same,fluorescence intensity,[18]; [28],339 MFI
same,fluorescence intensity,[18]; [29],596 MFI
same,fluorescence intensity,[19]; [30],12.8 MFI
same,fluorescence intensity,[19]; [31],13.5 MFI
same,fluorescence intensity,[19]; [24],14.5 MFI
same,fluorescence intensity,[19]; [25],15 MFI
same,fluorescence intensity,[19]; [26],29.5 MFI
same,fluorescence intensity,[19]; [27],179 MFI
same,fluorescence intensity,[19]; [28],540 MFI
same,fluorescence intensity,[19]; [29],886 MFI
same,fluorescence intensity,[20]; [30],14.5 MFI
same,fluorescence intensity,[20]; [31],16.8 MFI
same,fluorescence intensity,[20]; [24],13.5 MFI
same,fluorescence intensity,[20]; [25],15 MFI
same,fluorescence intensity,[20]; [26],15.2 MFI
same,fluorescence intensity,[20]; [27],37 MFI
same,fluorescence intensity,[20]; [28],93 MFI
same,fluorescence intensity,[20]; [29],213 MFI
same,fluorescence intensity,[21]; [30],17 MFI
same,fluorescence intensity,[21]; [31],18 MFI
same,fluorescence intensity,[21]; [24],27 MFI
same,fluorescence intensity,[21]; [25],155 MFI
same,fluorescence intensity,[21]; [26],611 MFI
same,fluorescence intensity,[21]; [27],1800 MFI
same,fluorescence intensity,[21]; [28],2380 MFI
same,fluorescence intensity,[21]; [29],2480 MFI
same,fluorescence intensity,[22]; [30],18.2 MFI
same,fluorescence intensity,[22]; [31],18.8 MFI
same,fluorescence intensity,[22]; [24],19.5 MFI
same,fluorescence intensity,[22]; [25],23 MFI
same,fluorescence intensity,[22]; [26],44.2 MFI
same,fluorescence intensity,[22]; [27],130 MFI
same,fluorescence intensity,[22]; [28],262 MFI
same,fluorescence intensity,[22]; [29],406 MFI
same,fluorescence intensity,[23]; [30],19.5 MFI
same,fluorescence intensity,[23]; [31],20.5 MFI
same,fluorescence intensity,[23]; [24],21.2 MFI
same,fluorescence intensity,[23]; [25],28.8 MFI
same,fluorescence intensity,[23]; [26],48.2 MFI
same,fluorescence intensity,[23]; [27],134 MFI
